Measured values reported in article PMC12581659.
Results are given in words; binding and its absence hold for the method and conditions named. Binding seen in cells or lysates may run through a third protein. Some results given as binding are weak or reduced against the parent protein; the word gives no strength.

Molecular target: T1, receptor-interacting serine/threonine-protein kinase 1 (RIPK1), endogenous in MEFs (mouse (endogenous in MEFs)), Q60855
T1 chain: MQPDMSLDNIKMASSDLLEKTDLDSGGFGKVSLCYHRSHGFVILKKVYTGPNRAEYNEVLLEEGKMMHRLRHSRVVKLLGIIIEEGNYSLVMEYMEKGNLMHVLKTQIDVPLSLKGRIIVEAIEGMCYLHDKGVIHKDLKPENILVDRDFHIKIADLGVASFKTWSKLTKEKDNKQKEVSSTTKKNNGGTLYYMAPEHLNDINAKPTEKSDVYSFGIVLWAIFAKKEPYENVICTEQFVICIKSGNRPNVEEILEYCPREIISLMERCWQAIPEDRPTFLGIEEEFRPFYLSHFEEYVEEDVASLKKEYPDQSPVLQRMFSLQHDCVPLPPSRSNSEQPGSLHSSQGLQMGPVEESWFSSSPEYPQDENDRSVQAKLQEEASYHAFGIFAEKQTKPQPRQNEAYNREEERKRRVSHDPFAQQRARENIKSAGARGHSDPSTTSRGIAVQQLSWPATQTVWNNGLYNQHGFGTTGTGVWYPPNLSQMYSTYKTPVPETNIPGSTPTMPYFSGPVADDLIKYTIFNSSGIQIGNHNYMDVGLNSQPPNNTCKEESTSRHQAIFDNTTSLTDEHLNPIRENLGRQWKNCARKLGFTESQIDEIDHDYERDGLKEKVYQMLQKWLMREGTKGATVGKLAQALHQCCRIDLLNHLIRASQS
Experiment: co-IP; SPOP+/+ and SPOP-/- MEFs pretreated with Nec-1s or DMSO for 1 hour, then DMSO, TSZ or TSZ+Nec-1s for 4 hours; necrosome immunoprecipitated using RIPK1 antibody, immunoblot
Conditions: remark: other sources report otherwise

B1: receptor-interacting serine/threonine-protein kinase 3 (RIPK3), endogenous in MEFs, Q9QZL0 1-486 (protein)
chain: MSSVKLWPTGASAVPLVSREELKKLEFVGKGGFGVVFRAHHRTWNHDVAVKIVNSKKISWEVKAMVNLRNENVLLLLGVTEDLQWDFVSGQALVTRFMENGSLAGLLQPECPRPWPLLCRLLQEVVLGMCYLHSLNPPLLHRDLKPSNILLDPELHAKLADFGLSTFQGGSQSGSGSGSGSRDSGGTLAYLDPELLFDVNLKASKASDVYSFGILVWAVLAGREAELVDKTSLIRETVCDRQSRPPLTELPPGSPETPGLEKLKELMIHCWGSQSENRPSFQDCEPKTNEVYNLVKDKVDAAVSEVKHYLSQHRSSGRNLSAREPSQRGTEMDCPRETMVSKMLDRLHLEEPSGPVPGKCPERQAQDTSVGPATPARTSSDPVAGTPQIPHTLPFRGTTPGPVFTETPGPHPQRNQGDGRHGTPWYPWTPPNPMTGPPALVFNNCSEVQIGNYNSLVAPPRTTASSSAKYDQAQFGRGRGWQPFHK
- binding: binds
